# Assay results reported in PubChem BioAssay AID504648 (National Center for Advancing Translational Sciences (NCATS), 2011).
# Among all 390,000 compounds or so, about 610 (0.16%) were called active. The shares of active, inactive and inconclusive entries below differ from those in the screen. The call rests on the fitted dose curve; in most records, active means well fitted inhibition curve with a large enough effect; inconclusive means small, poorly fitted or top-dose-only effect, or effect the other way, or another doubt; inactive means no such curve, though single readings can be large or run the other way. Potencies of inconclusive entries are doubtful fits and often do not repeat.
# Test: Nrf2 qHTS screen for inhibitors: counterscreen for cytotoxicity
# Settings: A549 ARE-Fluc cells, CellTiter-Fluor viability, 18-24 h; activity change, negative = cytotoxicity: at 46 µM (top of the series)
# In short: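 A549 ARE_Fluc cells in 5% FBS OPTI-MEM were exposed to compounds in concentration-response for 18-24 h at 37 deg C. Viability was read by CellTiter-Fluor fluorescence (Ex 405/Em 525) after 30 min, before the luciferase read.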
# On the % scale 0 is the no-effect control and ±100 the full control effect; potency means the concentration at half of the fitted maximal effect.
Structure (SMILES),Potency,"activity change, negative = cytotoxicity"
COc1cc(OC)cc(C(=O)N2CC(=O)Nc3ccccc32)c1,"inconclusive: 10.3 µM [falling, partial curve]",–
CC(Sc1ccccc1)C(=O)Nc1ccc(N2CCOCC2)cc1 (stereo not drawn),"inconclusive: 3.66 µM [activator, partial curve, poor fit]",–
Cc1nn(-c2ccccc2)c(Cl)c1C(=O)N1CCN(c2ncnc3c2cnn3-c2ccccc2)CC1,"inconclusive: 16.4 µM [falling, single point]",–
COc1ccc(CNC(=O)c2cnn3c(C)c(Cc4ccc(F)cc4)c(C)nc23)cc1,inactive,–
Cn1cnc([N+](=O)[O-])c1S(=O)(=O)Nc1ccccc1,"inconclusive: 32.6 µM [falling, partial curve, poor fit]",–
O=C(CCN1C(=O)/C(=C/c2ccccc2Cl)SC1=S)N1CCCC1,"inconclusive: 29.1 µM [falling, single point]",–
CCOc1cc(CNc2ccc(O)cc2)cc(Br)c1OCc1ccccc1,"inconclusive: 29.1 µM [falling, partial curve, poor fit]",–
CN(C)CCCN(C(=O)/C=C/c1cccs1)c1nc2c(F)cccc2s1,inactive,–
CCOc1ccccc1-c1nnc(SCc2ccc(Cl)cc2)o1,inactive,–
Cc1sc(NC(=O)Cn2c(=O)oc3ccccc32)nc1-c1ccc(Cl)cc1,inactive,–
NC(=O)CSc1nc2c(c(=O)n1-c1ccccc1)C1(CCCCC1)Cc1ccccc1-2,inactive,–
O=C(C#Cc1ccccc1)NCc1ccccc1F,"inconclusive: 18.4 µM [falling, single point]",–
O=C(Nc1ccc(Cl)cc1Cl)c1cc(S(=O)(=O)N2CCN(c3ccccc3F)CC2)ccc1F,inactive,–
CNc1nc(N)nc(-c2cc(Cl)ccc2OC)n1,"inconclusive: 29.1 µM [activator, single point]",–
CC1=C(C)C(=O)C(CCCCC#CCCCC#CCO)=C(C)C1=O,inactive,–
COc1cc(C(=O)NCC(c2cccnc2)N2CCN(c3ccc(F)cc3)CC2)cc(OC)c1OC (stereo not drawn),"inconclusive: 29.1 µM [falling, single point]",–
CCCCCc1ccc(OCCC[n+]2ccccc2)c(CCCCC)c1,"inconclusive: 16.4 µM [falling, partial curve, poor fit]",–
COc1ccccc1CNC(=O)C1CCN(Cc2nc(-c3ccc(OC)c(OC)c3)oc2C)CC1,inactive,–
COc1ccc(CNc2nc3c(c(=O)n(Cc4ccc(Cl)cc4)c(=O)n3C)n2C)cc1,"inconclusive: 14.6 µM [falling, partial curve, poor fit]",–
O=C1N/C(=C/c2cccn2-c2ccc(F)cc2)C(=O)N1Cc1ccccc1F,inactive,–
CCOc1ccccc1NC(=O)C1=C(C)Nc2ncnn2C1c1sccc1C (stereo not drawn),inactive,–
CCOC(=O)c1ccc(CN(Cc2ccc(OC)cc2)S(=O)(=O)c2cccc(C(F)(F)F)c2)cc1,"inconclusive: 20.6 µM [activator, single point]",–

Structure (SMILES),Potency,"activity change, negative = cytotoxicity"
CC1N(C)c2cc(NC(=O)c3cccs3)c(P(=O)(Nc3ccc([N+](=O)[O-])cc3)N3CCOCC3)cc2C1(C)C (stereo not drawn),"inconclusive: 23.1 µM [falling, single point]",–
CCn1c2c(c(=O)n3ncc(C(=O)Nc4ccc(C(=O)OC)cc4)c13)CN(Cc1ccc(OC)cc1)CC2,inactive,–
CCOC(=O)c1c(-c2cccs2)csc1NC(=O)C(C)(C)C,inactive,–
CCn1c(/C=N/n2cnnc2)nc2ccccc21,inactive,–
Cc1c([N+](=O)[O-])c([N+](=O)[O-])nn1CC(=O)N1CCOCC1,"inconclusive: 18.4 µM [falling, partial curve, poor fit]",–
CC(C)N1CCc2c(sc(NC(=O)c3ccc(S(=O)(=O)N4CCCCC4C)cc3)c2C(N)=O)C1 (stereo not drawn),"inconclusive: 20.6 µM [falling, single point]",–
O=C(Cc1csc2ccccc12)NCc1ccc(F)cc1,–,inconclusive: -46.7% [activator]
Cc1ccc(C)c(OCCSc2nnc(-c3cccnc3)n2N)c1,"inconclusive: 9.2 µM [activator, partial curve, poor fit]",–
CC(=O)Oc1ccc2ccccc2c1C(NC(=O)C(C)C)c1cccc([N+](=O)[O-])c1 (stereo not drawn),"inconclusive: 29.1 µM [falling, single point]",–
Cc1cc(C)cc(CN2CCC(Oc3ccc(C(=O)N4CCCC4)cc3)CC2)c1,"inconclusive: 20.6 µM [falling, single point]",–
CCCN(CCC)C(=O)c1c[nH]c2ccc(S(=O)(=O)N(C)c3ccc(OCC)cc3)cc2c1=O,"inconclusive: 16.4 µM [activator, partial curve, poor fit]",–
COc1ccc(NC(=S)NC(NC(=O)c2cccc(Cl)c2)C(Cl)(Cl)Cl)c([N+](=O)[O-])c1 (stereo not drawn),"inconclusive: 25.9 µM [falling, single point]",–
Cc1ccc(S(=O)(=O)N2C[C@@H]3[C@H]4CC[C@H](C4)[C@@H]3[C@@H](C)[C@@H]2c2cccn2Cc2ccccc2)cc1,"inconclusive: 25.9 µM [activator, partial curve, poor fit]",–
CCOc1ccc(/C=N/NC(=S)Nc2c(C)cccc2C)cc1,"inconclusive: 11.6 µM [falling, partial curve, poor fit]",–
CS(=O)(=O)c1ccc(Cl)c(NC(=O)COC(=O)COc2ccc3c(c2)CCC3)c1,inactive,–
Cc1nnc(N2CCN(c3ccc(Cl)cc3)CC2)c2c1nnn2Cc1ccc(F)cc1,inactive,–
COc1ccccc1Cn1ccn(CC(=O)Nc2c(C)cc(C)cc2C)c(=O)c1=O,"inconclusive: 25.9 µM [falling, single point]",–
NC(=O)N/N=C/c1cn(-c2ccccc2)nc1-c1cccs1,inactive,–
O=C(Nc1cccc(Cl)c1)C1CCN(c2nc3ccccc3nc2C(F)(F)F)CC1,"inconclusive: 29.1 µM [falling, single point]",–
O=C(NCc1ccccc1Cl)c1ccc2c(c1)N(Cc1ccccc1)C(=O)c1ccccc1S2,inactive,–
Cc1c(-n2c(SCC(=O)NC(C)C)nc3ccccc3c2=O)c(=O)n(-c2ccccc2)n1C,"inconclusive: 4.11 µM [activator, full curve, poor fit]",–

# An excerpt of these results, with tabs.
Structure (SMILES)	Potency	activity change, negative = cytotoxicity
CCOC(=O)c1c(-c2cccs2)csc1NC(=O)C(C)(C)C	inactive	–
CCn1c(/C=N/n2cnnc2)nc2ccccc21	inactive	–
Cc1c([N+](=O)[O-])c([N+](=O)[O-])nn1CC(=O)N1CCOCC1	inconclusive: 18.4 µM [falling, partial curve, poor fit]	–
